{"source": "patent US8515150B2", "about": "“Mathematical image analysis based cell reprogramming with applications for epigenetic and non-epigenetic base induced pluripotent stem cell derivation” (The Charles Stark Draper Laboratory, Inc., priority 2009, dated 2013)", "origin": "cited, not measured here", "test_system": "hESC", "conditions": "independent of feeders or recombinant growth factors; cited from earlier work", "note": "At least one compound was matched to its structure with a doubt left."}
{"smiles": "CCCC(=O)O", "note": "[butrate, butyrate]", "values": [{"measurement": "effect on self-renewal", "value": "activates a self-renewal program in hESC"}]}
